# Source: publication PMC9800341, “THOC5 complexes with DDX5, DDX17, and CDK12 to regulate R loop structures and transcription elongation rate”
# The exact form of at least one protein or probe is not confirmed. The comparison behind a weaker result is the experiment's own reference, which may not be listed here. For some of these results: Tags and fusion partners may be left off the protein sequences shown.
# Columns and labels:
# GST-THOC6 RK mutant = GST-THOC6 RK mutant (UniProt Q86W42); test: streptavidin pull-down; conditions: much weaker than WT; pull-downs: 4 C overnight or 37 C 2 h (Fig S5A: 4 h); recombinant protein; protein details: GST (pGEX-4T1), FLAG; label: 5' biotin on DNA or RNA strand; DNA:RNA hybrid
# THOC5-FLAG = target: T1, THOC5-FLAG (UniProt Q13769); test: streptavidin pull-down; conditions: only slight interaction; pull-downs: 4 C overnight or 37 C 2 h (Fig S5A: 4 h); recombinant protein; protein details: C-terminal FLAG (DYK); label: 5' biotin on DNA or RNA strand; DNA:RNA hybrid
# T1 sequence (looked up, limits assumed): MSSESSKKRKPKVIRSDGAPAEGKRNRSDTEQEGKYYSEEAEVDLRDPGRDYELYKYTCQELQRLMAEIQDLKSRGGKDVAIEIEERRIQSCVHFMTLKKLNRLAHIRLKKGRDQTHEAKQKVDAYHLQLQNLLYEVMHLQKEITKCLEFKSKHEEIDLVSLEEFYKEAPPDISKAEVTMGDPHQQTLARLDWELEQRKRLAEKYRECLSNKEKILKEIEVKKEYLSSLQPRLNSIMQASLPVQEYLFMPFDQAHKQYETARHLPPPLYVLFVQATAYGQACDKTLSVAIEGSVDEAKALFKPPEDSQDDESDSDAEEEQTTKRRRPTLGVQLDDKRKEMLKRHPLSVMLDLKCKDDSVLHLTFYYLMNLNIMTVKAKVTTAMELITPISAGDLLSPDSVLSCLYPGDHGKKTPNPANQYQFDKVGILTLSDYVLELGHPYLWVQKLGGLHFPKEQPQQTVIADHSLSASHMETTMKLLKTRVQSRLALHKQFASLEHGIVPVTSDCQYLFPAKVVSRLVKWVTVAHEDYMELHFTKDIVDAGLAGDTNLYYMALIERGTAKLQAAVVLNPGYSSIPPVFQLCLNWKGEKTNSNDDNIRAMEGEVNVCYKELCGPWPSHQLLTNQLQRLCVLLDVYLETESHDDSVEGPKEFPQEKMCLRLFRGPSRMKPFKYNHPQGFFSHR
# GST-THOC6 WT = target: T2, GST-THOC6 WT (UniProt Q86W42); test: GST pull-down; conditions: RNase H-treated C4D or ssDNA; pull-downs: 4 C overnight or 37 C 2 h (Fig S5A: 4 h); recombinant protein; protein details: GST (pGEX-4T1), FLAG; label: 5' …; single-stranded DNA
# T2 sequence (looked up, limits assumed): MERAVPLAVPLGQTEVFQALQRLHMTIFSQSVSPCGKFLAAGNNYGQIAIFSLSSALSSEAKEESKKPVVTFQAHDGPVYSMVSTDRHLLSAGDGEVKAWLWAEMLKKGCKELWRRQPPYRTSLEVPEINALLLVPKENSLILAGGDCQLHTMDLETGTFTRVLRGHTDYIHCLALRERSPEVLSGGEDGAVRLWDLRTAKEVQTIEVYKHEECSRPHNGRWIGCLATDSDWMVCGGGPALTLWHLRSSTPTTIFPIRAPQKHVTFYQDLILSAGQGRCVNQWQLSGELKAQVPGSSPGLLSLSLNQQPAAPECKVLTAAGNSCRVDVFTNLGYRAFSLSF
Sequence,binding result (GST-THOC6 RK mutant),binding result (THOC5-FLAG),binding result (GST-THOC6 WT)
CCCGGGAGGCGGAGGTTGCAGTGAACCAAGATCGCGCCATTGCACTCCAGCCTGGG / CCCAGGCUGGAGUGCAAUGGCGCGAUCUUGGUUCACUGCAACCUCCGCCUCCCGGG [C4D (C4-ssDNA + C4-ssRNA)],binds more weakly,binds more weakly,
CCCGGGAGGCGGAGGTTGCAGTGAACCAAGATCGCGCCATTGCACTCCAGCCTGGG [C4-ssDNA (C4D after RNase H)],,,binds more weakly
CGCCCTCCCGCCCCCTCGGGGCCCCGCCCCTGGGCCTCTCAGGCCCCTCCCCTGCGCTCC / GGAGCGCAGGGGAGGGGCCUGAGAGGCCCAGGGGCGGGGCCCCGAGGGGGCGGGAGGGCG [OSD (OS4D; OS-ssDNA + OS-ssRNA)],,binds more weakly,
